Test results published in article PMC10558514.
No constants are given. Whether binding was seen depends on the method and setting. In cells and extracts the contact can be indirect. For part of these data: Tags and fused reporters may be left off the sequences shown.

Chains of the proteins cited; added tags and fusions are not shown.
UniProt P68104: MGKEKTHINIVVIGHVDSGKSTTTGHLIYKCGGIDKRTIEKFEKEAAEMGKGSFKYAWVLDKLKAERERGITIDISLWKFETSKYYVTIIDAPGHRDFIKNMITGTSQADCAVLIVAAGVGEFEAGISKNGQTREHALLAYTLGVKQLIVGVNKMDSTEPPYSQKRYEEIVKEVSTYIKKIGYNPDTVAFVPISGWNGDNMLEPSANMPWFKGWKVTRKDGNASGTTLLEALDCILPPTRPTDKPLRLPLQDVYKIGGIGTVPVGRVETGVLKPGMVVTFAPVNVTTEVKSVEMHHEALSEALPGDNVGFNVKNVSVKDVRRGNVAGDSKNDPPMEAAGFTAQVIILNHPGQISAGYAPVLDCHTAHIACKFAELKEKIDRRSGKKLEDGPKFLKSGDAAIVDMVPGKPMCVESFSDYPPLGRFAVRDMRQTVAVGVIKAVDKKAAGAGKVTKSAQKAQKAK
UniProt Q14203: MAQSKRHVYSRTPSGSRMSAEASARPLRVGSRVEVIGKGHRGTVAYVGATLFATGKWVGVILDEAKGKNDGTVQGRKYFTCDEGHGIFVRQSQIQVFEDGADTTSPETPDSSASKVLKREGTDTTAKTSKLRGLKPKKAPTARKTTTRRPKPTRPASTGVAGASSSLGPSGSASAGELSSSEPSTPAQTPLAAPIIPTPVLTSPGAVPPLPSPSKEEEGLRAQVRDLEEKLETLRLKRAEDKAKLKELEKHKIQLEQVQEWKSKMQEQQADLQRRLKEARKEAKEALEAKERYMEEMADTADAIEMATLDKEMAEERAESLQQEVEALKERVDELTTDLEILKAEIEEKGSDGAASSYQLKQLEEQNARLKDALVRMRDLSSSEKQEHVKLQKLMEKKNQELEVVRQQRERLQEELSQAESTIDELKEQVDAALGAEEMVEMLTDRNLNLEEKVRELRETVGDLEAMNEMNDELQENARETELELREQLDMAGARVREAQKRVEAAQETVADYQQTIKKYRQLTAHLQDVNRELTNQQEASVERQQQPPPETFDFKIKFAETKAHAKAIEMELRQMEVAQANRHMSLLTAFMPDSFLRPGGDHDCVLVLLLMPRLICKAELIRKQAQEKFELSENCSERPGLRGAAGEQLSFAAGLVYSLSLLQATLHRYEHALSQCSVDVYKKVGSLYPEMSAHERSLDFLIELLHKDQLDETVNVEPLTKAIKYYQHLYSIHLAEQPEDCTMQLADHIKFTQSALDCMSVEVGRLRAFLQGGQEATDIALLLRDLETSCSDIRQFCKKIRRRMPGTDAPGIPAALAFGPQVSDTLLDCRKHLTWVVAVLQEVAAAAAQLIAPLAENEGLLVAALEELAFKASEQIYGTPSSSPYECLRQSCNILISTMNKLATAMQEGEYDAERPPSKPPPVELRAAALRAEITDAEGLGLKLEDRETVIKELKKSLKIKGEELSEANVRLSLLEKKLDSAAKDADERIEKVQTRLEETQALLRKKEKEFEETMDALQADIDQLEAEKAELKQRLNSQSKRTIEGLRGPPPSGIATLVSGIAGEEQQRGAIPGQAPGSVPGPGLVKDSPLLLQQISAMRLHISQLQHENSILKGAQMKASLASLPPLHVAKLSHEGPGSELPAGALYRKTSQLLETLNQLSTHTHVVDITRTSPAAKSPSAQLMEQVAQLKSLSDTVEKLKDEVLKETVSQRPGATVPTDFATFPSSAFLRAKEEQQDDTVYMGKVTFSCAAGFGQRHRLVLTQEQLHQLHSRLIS

T1: Myc-YTHDF2-Δ101-168 (human) (UniProt Q9Y5A9)
T1 sequence: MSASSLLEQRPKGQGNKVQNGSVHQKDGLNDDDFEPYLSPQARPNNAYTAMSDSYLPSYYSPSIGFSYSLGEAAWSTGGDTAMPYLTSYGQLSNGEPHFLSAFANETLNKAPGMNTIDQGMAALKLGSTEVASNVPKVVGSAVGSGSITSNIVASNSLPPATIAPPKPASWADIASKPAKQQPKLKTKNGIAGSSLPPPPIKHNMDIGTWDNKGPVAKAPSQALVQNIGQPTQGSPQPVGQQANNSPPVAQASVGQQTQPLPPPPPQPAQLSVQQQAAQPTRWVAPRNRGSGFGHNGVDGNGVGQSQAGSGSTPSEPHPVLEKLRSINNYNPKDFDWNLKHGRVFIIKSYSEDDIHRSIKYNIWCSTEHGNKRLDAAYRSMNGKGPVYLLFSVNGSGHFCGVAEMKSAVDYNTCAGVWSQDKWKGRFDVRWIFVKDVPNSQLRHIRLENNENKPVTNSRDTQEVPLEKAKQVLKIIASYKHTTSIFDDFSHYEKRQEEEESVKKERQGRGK

T2: Myc-YTHDF2-Δ101-200 (human) (UniProt Q9Y5A9)
T2 sequence: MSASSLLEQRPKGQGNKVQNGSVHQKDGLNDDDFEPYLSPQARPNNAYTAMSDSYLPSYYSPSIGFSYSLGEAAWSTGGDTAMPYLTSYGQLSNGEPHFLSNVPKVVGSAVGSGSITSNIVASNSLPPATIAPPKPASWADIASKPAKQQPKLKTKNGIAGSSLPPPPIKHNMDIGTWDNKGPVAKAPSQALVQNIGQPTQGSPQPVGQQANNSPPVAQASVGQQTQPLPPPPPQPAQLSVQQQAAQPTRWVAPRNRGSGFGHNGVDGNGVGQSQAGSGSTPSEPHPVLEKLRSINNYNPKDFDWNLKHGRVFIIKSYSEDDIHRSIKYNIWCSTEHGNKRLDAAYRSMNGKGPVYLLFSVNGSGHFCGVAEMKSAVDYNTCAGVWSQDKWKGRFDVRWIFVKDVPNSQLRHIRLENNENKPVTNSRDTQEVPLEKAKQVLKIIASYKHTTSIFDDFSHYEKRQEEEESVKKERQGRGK

T3: YTHDF3, endogenous (human (endogenous in HEK293T)) (UniProt Q7Z739)
T3 sequence: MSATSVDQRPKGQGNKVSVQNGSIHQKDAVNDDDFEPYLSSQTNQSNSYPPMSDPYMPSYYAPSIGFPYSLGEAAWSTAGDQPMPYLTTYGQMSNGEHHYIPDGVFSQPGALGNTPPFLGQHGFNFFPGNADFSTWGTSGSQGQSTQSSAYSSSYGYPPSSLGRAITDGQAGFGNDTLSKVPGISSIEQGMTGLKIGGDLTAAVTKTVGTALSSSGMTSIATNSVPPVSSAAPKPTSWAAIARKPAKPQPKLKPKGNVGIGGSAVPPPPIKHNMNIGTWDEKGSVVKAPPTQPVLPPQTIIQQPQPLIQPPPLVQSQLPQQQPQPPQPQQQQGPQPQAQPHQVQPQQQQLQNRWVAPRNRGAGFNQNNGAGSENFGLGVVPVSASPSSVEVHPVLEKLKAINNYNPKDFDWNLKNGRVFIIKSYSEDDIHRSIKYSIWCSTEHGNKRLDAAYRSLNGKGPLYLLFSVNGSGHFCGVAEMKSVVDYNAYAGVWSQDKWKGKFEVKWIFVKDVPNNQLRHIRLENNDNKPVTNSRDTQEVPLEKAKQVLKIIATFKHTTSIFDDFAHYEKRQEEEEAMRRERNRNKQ

T4: YTHDF1, endogenous (human (endogenous in HEK293T)) (UniProt Q9BYJ9)
T4 sequence: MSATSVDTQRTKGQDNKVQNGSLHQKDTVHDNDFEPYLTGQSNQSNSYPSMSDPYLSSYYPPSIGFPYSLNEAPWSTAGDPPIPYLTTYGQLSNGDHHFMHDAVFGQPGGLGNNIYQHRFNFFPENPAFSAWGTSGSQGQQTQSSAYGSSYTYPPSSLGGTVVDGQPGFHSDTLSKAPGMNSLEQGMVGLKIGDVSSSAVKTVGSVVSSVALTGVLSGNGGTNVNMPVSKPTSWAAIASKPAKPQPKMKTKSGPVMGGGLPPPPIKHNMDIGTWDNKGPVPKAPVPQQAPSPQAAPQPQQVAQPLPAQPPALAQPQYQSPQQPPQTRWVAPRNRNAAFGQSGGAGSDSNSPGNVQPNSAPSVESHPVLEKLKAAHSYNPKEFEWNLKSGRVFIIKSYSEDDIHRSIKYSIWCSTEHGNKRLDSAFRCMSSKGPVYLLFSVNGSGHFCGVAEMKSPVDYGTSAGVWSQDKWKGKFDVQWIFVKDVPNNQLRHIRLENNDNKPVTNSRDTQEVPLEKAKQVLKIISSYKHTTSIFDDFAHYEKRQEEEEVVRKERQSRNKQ


Legend:
[1] = molecular target: T1, Myc-YTHDF2-Δ101-168 (human); assay: co-IP; IP with α-Myc antibody from extracts of HEK293T cells transfected with Myc-YTHDF2 (WT or variant), western blot; DMSO or MG132 12 h (Fig. 3b), two days after transfection (Fig. 4a)
[2] = molecular target: T2, Myc-YTHDF2-Δ101-200 (human); assay: as above
[3] = molecular target: T3, YTHDF3, endogenous (human (endogenous in HEK293T)); assay: co-IP; IP with an antibody against endogenous YTHDF1, YTHDF2 or YTHDF3 from HEK293T extracts in NET-2 buffer (50 mM Tris-HCl pH 7.4, 150 mM NaCl, 0.05% NP-40), 3 h at 4 °C, western blot; cells treated with MG132 12 h (Fig. 2f), or with DMSO or MG132, with or without UPF1 siRNA (Fig. 3a)
[4] = molecular target: T4, YTHDF1, endogenous (human (endogenous in HEK293T)); assay: as above

Row | binding [1] | binding [2] | binding [3] | binding [4] | Molecule
1 | no binding | no binding | no binding | no binding | eukaryotic translation elongation factor 1 alpha 1 (eEF1A1), endogenous (from UniProt P68104 1-462)
2 | no binding | no binding | no binding | no binding | dynactin 1 (DCTN1), endogenous (from UniProt Q14203 1-1278)
3 | no binding | no binding | no binding | no binding | upstream frameshift 1 (UPF1), endogenous (protein, UniProt Q92900 1-1129) MSVEAYGPSSQTLTFLDTEEAELLGADTQGSEFEFTDFTLPSQTQTPPGGPGGPGGGGAGGPGGAGAGAAAGQLDAQVGPEGILQNGAVDDSVAKTSQLLAELNFEEDEEDTYYTKDLPIHACSYCGIHDPACVVYCNTSKKWFCNGRGNTSGSHIVNHLVRAKCKEVTLHKDGPLGETVLECYNCGCRNVFLLGFIPAKADSVVVLLCRQPCASQSSLKDINWDSSQWQPLIQDRCFLSWLVKIPSEQEQLRARQITAQQINKLEELWKENPSATLEDLEKPGVDEEPQHVLLRYEDAYQYQNIFGPLVKLEADYDKKLKESQTQDNITVRWDLGLNKKRIAYFTLPKTDSGNEDLVIIWLRDMRLMQGDEICLRYKGDLAPLWKGIGHVIKVPDNYGDEIAIELRSSVGAPVEVTHNFQVDFVWKSTSFDRMQSALKTFAVDETSVSGYIYHKLLGHEVEDVIIKCQLPKRFTAQGLPDLNHSQVYAVKTVLQRPLSLIQGPPGTGKTVTSATIVYHLARQGNGPVLVCAPSNIAVDQLTEKIHQTGLKVVRLCAKSREAIDSPVSFLALHNQIRNMDSMPELQKLQQLKDETGELSSADEKRYRALKRTAERELLMNADVICCTCVGAGDPRLAKMQFRSILIDESTQATEPECMVPVVLGAKQLILVGDHCQLGPVVMCKKAAKAGLSQSLFERLVVLGIRPIRLQVQYRMHPALSAFPSNIFYEGSLQNGVTAADRVKKGFDFQWPQPDKPMFFYVTQGQEEIASSGTSYLNRTEAANVEKITTKLLKAGAKPDQIGIITPYEGQRSYLVQYMQFSGSLHTKLYQEVEIASVDAFQGREKDFIILSCVRANEHQGIGFLNDPRRLNVALTRARYGVIIVGNPKALSKQPLWNHLLNYYKEQKVLVEGPLNNLRESLMQFSKPRKLVNTINPGARFMTTAMYDAREAIIPGSVYDRSSQGRPSSMYFQTHDQIGMISAGPSHVAAMNIPIPFNLVMPPMPPPGYFGQANGPAAGRGTPKGKTGRGGRQKNRFGLPGPSQTNLPNSQASQDVASQPFSQGALTQGYISMSQPSQMSQPGLSQPELSQDSYLGDEFKSQIDVALSQDSTYQGERAYQHGGVTGLSQY
